Measured values published in patent US20230218577A1, “USE OF HEAT SHOCK PROTEIN INHIBITORS FOR THE TREATMENT OF NEURODEVELOPMENTAL DISORDERS” (The Children's Medical Center Corporation, priority 2020, published 2023).
At least one compound was matched to its structure with a doubt left.

Test system: cilia (ACIII) in Tsc2-sh hippocampal neurons
Test: cilia^HCA (GFP+ ACIII+ neurons) in Tsc2-sh neurons
Assay type: cell-based, rat
Details: 24 hrs at DIV20, concentrations that inhibited mTORC1 (8.5 μM 17-AGG, 9 μM GA, 5.5 μM rapamycin)
Excerpt: To investigate how mTORC1 dysregulation due to neuronal TSC loss affected ciliation, High Content image-based Assays (HCAs) were developed for unbiased quantification of cilia and mTORC1 activity (hereafter cilia^HCA and mTORC1^HCA) in primary neurons. As an in vitro model of TSC, rat hippocampal neurons transduced with lentiviral vectors (LV) expressing a short hairpin RNA (shRNA) were used directed against either the Tsc2 (Tsc2-sh) or the luciferase gene as a control (ctrl-sh) tagged with GFP. […] Both the cilia^HCA and mTORC1^HCA were optimized as imaged-based assays, where cilia and mTORC1 activity was monitored by immunofluorescent staining of ACIII to identify cilia and pS6 as a proxy of mTORC1 activation (FIGS. 8C-F). Neurons were transduced in culture at day in vitro (DIV) 1, and cilia and mTORC1 activity were assessed in a time course experiment at DIV2, 5, 7, 13, and 20 (FIG. 2A). […] Reduced ciliation was validated by manual imaging and quantification of LV-infected neurons co-labeled with ACIII/centrin (FIGS. 8G-H). No changes in size or ACIII intensity were detected in the remaining cilia of the Tsc2-sh neurons (FIGS. 8I-J). […]

How did the “ciliation, acute effect” value turn out when COC1=C2C[C@@H](C)C[C@H](OC)[C@H](O)[C@@H](C)/C=C(\C)[C@H](OC(N)=O)[C@@H](OC)/C=C\C=C(/C)C(=O)NC(=CC1=O)C2=O [GA, 4E,6Z,8S,9S,10E,12S,13R,14S,16R)-13-hydroxy-8,14,19-trimethoxy-4,10,12,16-tetramethyl-3,20,22-trioxo-2-azabicyclo[16.3.1]docosa-1(21),4,6,10,18-pentaen-9-yl carbamate] was run?
Its value is “Neither of the Hsp90 inhibitors nor rapamycin rescued ciliation”.
